The exact form of at least one protein or probe is not confirmed. For some assays here: Weaker means in comparison with the reference protein, sequence or condition of that experiment. For some assays here: Tags and fusion partners may be left off the protein sequences shown. For some assays here: At least one verdict was read from the data and is not stated in words by the source.
How the values were obtained:
Experiment in all cases: EMSA
ELF4 (human) = ELF4 (human) (UniProt Q99607); settings: EMSA conditions not printed (as previously described, ref 5); protein stock in 10 mM Tris pH 7.9, 0.5 mM EDTA, 200 mM KCl, 1 mM DTT, 10% glycerol; recombinant protein; residues 1-663; protein details: N-term 6xHis
ETV2 (human) = target: T1, ETV2 (human) (UniProt O00321); settings: EMSA conditions not printed (as previously described, ref 5); protein stock in 10 mM Tris pH 7.9, 0.5 mM EDTA, 200 mM KCl, 1 mM DTT, 10% glycerol; recombinant protein; residues 1-342; protein details: N-term 6xHis
T1 sequence (looked up): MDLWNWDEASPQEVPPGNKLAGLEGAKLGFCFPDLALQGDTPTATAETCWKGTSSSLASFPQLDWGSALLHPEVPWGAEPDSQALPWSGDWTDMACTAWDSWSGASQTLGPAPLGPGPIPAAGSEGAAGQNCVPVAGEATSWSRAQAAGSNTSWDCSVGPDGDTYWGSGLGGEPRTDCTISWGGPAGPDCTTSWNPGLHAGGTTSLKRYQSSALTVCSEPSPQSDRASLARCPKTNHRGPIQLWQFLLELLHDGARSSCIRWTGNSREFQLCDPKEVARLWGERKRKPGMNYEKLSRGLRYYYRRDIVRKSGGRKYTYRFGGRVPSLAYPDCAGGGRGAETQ

Chains of the proteins cited; added tags and fusions are not shown. Lines headed by an entry give the natural chain unless they say otherwise; changes in a name come on top.
UniProt Q99607: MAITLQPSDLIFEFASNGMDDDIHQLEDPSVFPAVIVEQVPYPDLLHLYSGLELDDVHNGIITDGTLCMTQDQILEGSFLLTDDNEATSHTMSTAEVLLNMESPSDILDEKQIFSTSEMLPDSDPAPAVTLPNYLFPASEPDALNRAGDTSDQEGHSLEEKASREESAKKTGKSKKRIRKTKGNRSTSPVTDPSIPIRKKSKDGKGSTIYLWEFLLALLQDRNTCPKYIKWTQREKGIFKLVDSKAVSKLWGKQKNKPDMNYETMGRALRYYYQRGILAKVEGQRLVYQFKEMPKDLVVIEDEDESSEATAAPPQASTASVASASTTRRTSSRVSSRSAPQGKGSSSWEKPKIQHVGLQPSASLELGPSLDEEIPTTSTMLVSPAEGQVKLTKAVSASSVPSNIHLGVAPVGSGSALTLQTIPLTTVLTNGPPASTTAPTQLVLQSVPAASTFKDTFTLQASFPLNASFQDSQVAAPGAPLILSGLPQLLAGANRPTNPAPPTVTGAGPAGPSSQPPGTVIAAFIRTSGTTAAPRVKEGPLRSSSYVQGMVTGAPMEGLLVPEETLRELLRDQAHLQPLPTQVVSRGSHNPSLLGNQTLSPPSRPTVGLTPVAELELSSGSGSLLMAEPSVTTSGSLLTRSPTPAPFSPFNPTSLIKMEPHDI
UniProt Q01892: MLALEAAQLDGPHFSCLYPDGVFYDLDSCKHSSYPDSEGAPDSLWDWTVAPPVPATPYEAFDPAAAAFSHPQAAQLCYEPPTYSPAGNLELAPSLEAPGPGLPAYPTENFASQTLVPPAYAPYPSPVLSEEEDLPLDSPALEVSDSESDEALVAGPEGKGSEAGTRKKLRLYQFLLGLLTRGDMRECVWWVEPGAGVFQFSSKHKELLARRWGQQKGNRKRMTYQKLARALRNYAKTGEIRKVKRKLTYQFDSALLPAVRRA
UniProt Q9Y603, whole entry A86D: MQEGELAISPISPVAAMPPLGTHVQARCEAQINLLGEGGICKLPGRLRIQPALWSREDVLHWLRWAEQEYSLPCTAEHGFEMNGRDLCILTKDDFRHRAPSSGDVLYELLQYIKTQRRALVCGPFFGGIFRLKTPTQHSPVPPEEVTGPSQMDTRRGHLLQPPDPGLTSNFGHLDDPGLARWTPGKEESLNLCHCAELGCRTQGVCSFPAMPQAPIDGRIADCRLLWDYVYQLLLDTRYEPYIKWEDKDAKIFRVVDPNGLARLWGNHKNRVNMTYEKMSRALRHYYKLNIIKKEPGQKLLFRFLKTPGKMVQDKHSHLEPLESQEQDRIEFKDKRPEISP

ELK1 (human) = target: T2, ELK1 (human) (UniProt P19419); settings: EMSA conditions not printed (as previously described, ref 5); protein stock in 10 mM Tris pH 7.9, 0.5 mM EDTA, 200 mM KCl, 1 mM DTT, 10% glycerol; recombinant protein; residues 1-428; protein details: N-term 6xHis
T2 sequence (looked up): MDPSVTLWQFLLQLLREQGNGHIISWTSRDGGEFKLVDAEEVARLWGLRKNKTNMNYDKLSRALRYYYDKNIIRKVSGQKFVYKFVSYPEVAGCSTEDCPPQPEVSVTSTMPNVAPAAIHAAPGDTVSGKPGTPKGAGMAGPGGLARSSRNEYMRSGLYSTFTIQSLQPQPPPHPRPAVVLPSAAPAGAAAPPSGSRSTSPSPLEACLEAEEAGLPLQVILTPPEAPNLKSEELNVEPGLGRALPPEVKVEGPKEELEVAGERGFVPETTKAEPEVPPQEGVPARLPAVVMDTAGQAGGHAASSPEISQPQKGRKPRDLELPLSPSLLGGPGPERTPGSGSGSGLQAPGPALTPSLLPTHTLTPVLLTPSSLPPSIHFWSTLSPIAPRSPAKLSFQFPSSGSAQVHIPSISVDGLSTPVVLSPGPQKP

SPIB (human) = SPIB (human) (UniProt Q01892); settings: EMSA conditions not printed (as previously described, ref 5); protein stock in 10 mM Tris pH 7.9, 0.5 mM EDTA, 200 mM KCl, 1 mM DTT, 10% glycerol; recombinant protein; residues 1-262; protein details: N-term 6xHis
ETV7 A86D (human) = ETV7 A86D (human) (UniProt Q9Y603); settings: EMSA conditions not printed (as previously described, ref 5); protein stock in 10 mM Tris pH 7.9, 0.5 mM EDTA, 200 mM KCl, 1 mM DTT, 10% glycerol; recombinant protein; residues 1-341; protein details: N-term 6xHis
SPIC (human) = target: T3, SPIC (human) (UniProt Q8N5J4); settings: low affinity, likely autoinhibition; EMSA conditions not printed (as previously described, ref 5); protein stock in 10 mM Tris pH 7.9, 0.5 mM EDTA, 200 mM KCl, 1 mM DTT, 10% glycerol; recombinant protein; residues 1-248; protein details: N-term 6xHis
T3 sequence (looked up): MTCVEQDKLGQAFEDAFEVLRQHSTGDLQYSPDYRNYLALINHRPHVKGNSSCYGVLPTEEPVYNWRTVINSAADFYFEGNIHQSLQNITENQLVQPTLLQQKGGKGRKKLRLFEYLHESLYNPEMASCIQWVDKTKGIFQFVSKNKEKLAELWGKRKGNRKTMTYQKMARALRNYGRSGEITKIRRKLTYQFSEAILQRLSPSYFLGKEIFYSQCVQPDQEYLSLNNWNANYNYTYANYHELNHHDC

ETV6 A93D (human) = target: T4, ETV6 A93D (human) (UniProt P41212); settings: low affinity, likely autoinhibition; EMSA conditions not printed (as previously described, ref 5); protein stock in 10 mM Tris pH 7.9, 0.5 mM EDTA, 200 mM KCl, 1 mM DTT, 10% glycerol; recombinant protein; residues 1-452; protein details: N-term 6xHis
T4 sequence (looked up): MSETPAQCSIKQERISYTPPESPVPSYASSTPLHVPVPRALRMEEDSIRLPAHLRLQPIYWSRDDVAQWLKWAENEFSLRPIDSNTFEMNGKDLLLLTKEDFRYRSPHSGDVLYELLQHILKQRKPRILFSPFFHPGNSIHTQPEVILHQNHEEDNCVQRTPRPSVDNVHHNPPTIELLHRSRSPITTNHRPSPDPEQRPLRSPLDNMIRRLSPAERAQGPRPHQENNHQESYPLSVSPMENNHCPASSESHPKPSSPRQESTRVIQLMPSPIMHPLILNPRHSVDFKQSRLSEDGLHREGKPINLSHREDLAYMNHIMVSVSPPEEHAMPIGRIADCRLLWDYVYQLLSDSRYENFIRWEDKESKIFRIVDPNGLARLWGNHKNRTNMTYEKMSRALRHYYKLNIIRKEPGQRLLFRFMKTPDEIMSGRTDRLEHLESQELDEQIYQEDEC

EHF (human) = target: T5, EHF (human) (UniProt Q9NZC4); settings: EMSA conditions not printed (as previously described, ref 5); protein stock in 10 mM Tris pH 7.9, 0.5 mM EDTA, 200 mM KCl, 1 mM DTT, 10% glycerol; recombinant protein; residues 1-300; protein details: N-term 6xHis
T5 sequence (looked up): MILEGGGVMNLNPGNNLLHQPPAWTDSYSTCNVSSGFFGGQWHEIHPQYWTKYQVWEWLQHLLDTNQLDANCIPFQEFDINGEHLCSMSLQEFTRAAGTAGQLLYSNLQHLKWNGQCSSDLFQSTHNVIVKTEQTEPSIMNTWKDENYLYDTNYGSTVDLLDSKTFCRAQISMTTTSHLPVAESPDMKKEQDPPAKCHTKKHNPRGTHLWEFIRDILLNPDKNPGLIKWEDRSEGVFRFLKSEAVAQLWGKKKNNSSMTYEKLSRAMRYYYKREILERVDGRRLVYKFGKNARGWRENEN

## GCCACGGCCCAGGAAGTGACTCACCCACCCTGATG (double strand) [ETS consensus EMSA probe]
ELF4 (human)
  binding result: binds
ETV2 (human)
  binding result: binds
ELK1 (human)
  binding result: binds
SPIB (human)
  binding result: binds
ETV7 A86D (human)
  binding result: binds
SPIC (human)
  binding result: binds more weakly
ETV6 A93D (human)
  binding result: binds more weakly
EHF (human)
  binding result: binds

Source: paper PMC4338625
